In patent publication CN110144011A one finds binding data, which are given here for five molecules.

Protein sequences, listed by entry. Tags and fused reporters are not part of them. Residues count along the entry.
UniProt Q8TDQ0, residues 22-202: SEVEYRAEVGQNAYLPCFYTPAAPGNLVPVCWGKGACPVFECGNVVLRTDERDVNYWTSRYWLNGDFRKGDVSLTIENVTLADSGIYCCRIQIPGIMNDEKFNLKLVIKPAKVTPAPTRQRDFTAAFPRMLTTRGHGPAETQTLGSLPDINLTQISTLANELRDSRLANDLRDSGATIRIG

The target in this assay is TIM3(ECD)-Fc抗原 (human) (UniProt Q8TDQ0). Kind of assay: ELISA of crude periplasmic extract on antigen-coated plate, anti-HA detection; clones positive at OD ratio to control >3.

These are yes or no findings as the source states them, for the method shown. Some entries that bind do so weakly or less than the wild type.

B1: Nb10 (VHH)
VHH: QVQLQESGGGSVQAGGSLRLSCAASGYTYSRACMGWFRQAPGKQREWVSGIRDGGSTAYADSVKGRFTISRDNAKNTLYLQMNSLKPEDTAMYYCAADITCRHARPPYWGQGTQVTVSS
Take B1: the binding result was “binds”.

B2: Nb12 (VHH)
VHH: QVQLQESGGGSVQPGGSLRLSCTASGYTYSRACMGWFRQAPGKQREWVSGIRHDGSITYADSVKGRFTISRDNAKNTLYLQMNSLKPEDTAMYYCGADIDCRGTRPPYWGQGTQVTVSS
For the molecule B2, the binding entry is given as “binds”.

B3: Nb11 (VHH)
VHH: QVQLQESGGGSVQAGGSLRLSCTASGYTYSRACMGWFRQAPGKQREWVSGIRDDGSTAYADSVKGRFTISRDNAKNTLYLQMNSLKPEDTAMYYCAADITCRHARPPYWGQGTQVTVSS
Consider B3, for which the binding entry was “binds”.

B4: Nb9 (VHH)
VHH: QVQLQESGGGSVQVGGSLRLSCTASGYTYSRACMGWFRQAPGKQREWVSGIRDDGSTAYADSVKGRFTISRDNAKNTLYLQMNSLKPEDTAMYYCAADITCRHARPPYWGQGTQVTVSS
With B4, the binding entry was “binds”.

B5: Nb13 (VHH)
VHH: QVQLQESGGGSVQVGGSLRLSCTASGYTYSRACMGWFRQAPGKQREWVSGVRHDGSITYADSVKGRFTISRDNAKNTLYLQMNSLKPEDTAMYYCGADIDCRGTRPPYWGQGTQVTVSS
Regarding B5, the binding result is on record as “binds”.
